Experimental data from publication PMC5938709.
Results are given in words; binding and its absence hold for the method and conditions named. In cells and extracts the contact can be indirect. Some entries that bind do so weakly or less than the wild type.

Chains of the proteins cited; added tags and fusions are not shown.
UniProt Q15554: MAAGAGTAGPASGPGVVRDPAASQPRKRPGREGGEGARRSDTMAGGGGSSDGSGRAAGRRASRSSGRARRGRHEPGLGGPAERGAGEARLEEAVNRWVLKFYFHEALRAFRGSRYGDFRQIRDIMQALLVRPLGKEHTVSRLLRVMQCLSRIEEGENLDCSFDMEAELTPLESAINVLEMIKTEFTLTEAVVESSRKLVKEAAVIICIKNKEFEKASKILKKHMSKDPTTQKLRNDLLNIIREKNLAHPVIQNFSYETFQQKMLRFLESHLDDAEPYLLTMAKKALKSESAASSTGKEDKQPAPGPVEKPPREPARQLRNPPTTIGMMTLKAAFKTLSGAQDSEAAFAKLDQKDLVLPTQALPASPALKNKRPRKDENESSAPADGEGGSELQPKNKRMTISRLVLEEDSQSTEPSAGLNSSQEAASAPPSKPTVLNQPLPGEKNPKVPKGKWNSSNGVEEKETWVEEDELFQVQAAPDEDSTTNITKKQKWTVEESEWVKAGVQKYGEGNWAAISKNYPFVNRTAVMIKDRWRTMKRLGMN

Biological target: Telomeric repeat-binding factor 2 (TRF2), endogenous (human (endogenous in HEK293T)) (UniProt Q15554)
Test: co-IP; endogenous proteins in HEK293T lysate (IP lysate buffer); anti-TRF2 or anti-NOLC1 antibody overnight at 4 °C, protein-G Sepharose beads, four washes, western blot

B1: Nucleolar and coiled-body phosphoprotein 1 (NOLC1), endogenous (protein, UniProt Q14978 1-699)
chain: MADAGIRRVVPSDLYPLVLGFLRDNQLSEVANKFAKATGATQQDANASSLLDIYSFWLKSAKVPERKLQANGPVAKKAKKKASSSDSEDSSEEEEEVQGPPAKKAAVPAKRVGLPPGKAAAKASESSSSEESSDDDDEEDQKKQPVQKGVKPQAKAAKAPPKKAKSSDSDSDSSSEDEPPKNQKPKITPVTVKAQTKAPPKPARAAPKIANGKAASSSSSSSSSSSSDDSEEEKAAATPKKTVPKKQVVAKAPVKAATTPTRKSSSSEDSSSDEEEEQKKPMKNKPGPYSSVPPPSAPPPKKSLGTQPPKKAVEKQQPVESSEDSSDESDSSSEEEKKPPTKAVVSKATTKPPPAKKAAESSSDSSDSDSSEDDEAPSKPAGTTKNSSNKPAVTTKSPAVKPAAAPKQPVGGGQKLLTRKADSSSSEEESSSSEEEKTKKMVATTKPKATAKAALSLPAKQAPQGSRDSSSDSDSSSSEEEEEKTSKSAVKKKPQKVAGGAAPSKPASAKKGKAESSNSSSSDDSSEEEEEKLKGKGSPRPQAPKANGTSALTAQNGKAAKNSEEEEEEKKKAAVVVSKSGSLKKRKQNEAAKEAETPQAKKIKLQTPNTFPKRKKGEKRASSPFRRVREEEIEVDSRVADNSFDAKRGAAGDWGERANQVLKFTKGKSFRHEKTKKKRGSYRGGSISVQVNSIKFDSE
B1 was tested, and the binding was “binds”.
